Results taken from article doi:10.1101/2023.06.14.544986.
These are yes or no findings as the source states them, for the method shown. Binding seen in cells or lysates may run through a third protein. A result given as binding can be weak or reduced; the word gives no strength. Where a sequence is shown, tags or fusion partners need not be part of it.

Key:
[1] = target: T1, Arm^34–87-GFP (Drosophila) (UniProt P18824); assay: co-IP
T1 sequence: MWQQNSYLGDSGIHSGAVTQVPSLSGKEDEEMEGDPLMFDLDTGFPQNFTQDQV

[2] = target: T2, GST-Arm^34–87 (Drosophila) (UniProt P18824); assay: pull-down
T2 sequence: T1 sequence

Row | binding [1] | Substance | binding [2]
1 | binds | IFT140-myc (Drosophila) | 
2 | no binding | IFT144-myc (Drosophila) | 
3 |  | MBP-IFT140 (Drosophila) | binds
4 |  | MBP-Kap3 (Drosophila) | no binding
5 |  | MBP-Klp64D (Drosophila) | no binding
